Measurements: PubChem BioAssay AID328 (DTP/NCI, 2004)
The list does not hold the whole screen: it is rich in T/C values a quarter to a half above the control, in often repeated tests (any T/C) and in doses without a T/C. Other doses and runs of a compound stand elsewhere. T/C gives the treated animals as a percentage of the vehicle group. Some entries give survivors of the animals treated and no T/C: the source holds a T/C of zero for them, seemingly a mark for toxic or unscored doses. Some survivor counts are full or nearly so, which does not show that the dose was tolerated: survival well below the control is almost never listed, so the zero probably covers shortened survival too. Survivors were counted at the toxicity check, usually on the fifth day, unless a day is given; later deaths do not show. Schedule codes are those of the source, read here as Q, the interval in days (D) or hours (H), X, the number of doses. Some entries were tested several times; the values are given in rising order. For survival time, this PubChem deposit counts one and a half times the control or more as active, and values a quarter to a half above the control carry no call in these data; other NCI protocols may use other cut-offs. Some T/C values are followed by the survivors on the day toxicity was checked, most often the fifth; without a count, all were alive then.

Test system: BDF1 mice, P388 leukemia ip, median survival T/C
Experiment: NCI In Vivo Anticancer Drug Screen. Data for tumor model P388 Leukemia (intraperitoneal) in B6D2F1 (BDF1) mice
Conditions: T/C endpoint: median survival time, higher T/C = longer survival
In short: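 Each value expresses how treatment altered survival: treated-mouse outcome over vehicle-mouse outcome, both groups bearing the transplanted tumour.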

[1] = dose: 200.0 mg/kg/injection, schedule: Q01DX009 (ip), vehicle: Klucel (hydroxypropylcellulose) (HPC)
[2] = dose: 400.0 mg/kg/injection, schedule: Q01DX009 (ip), vehicle: Klucel (hydroxypropylcellulose) (HPC)
[3] = dose: 100.0 mg/kg/injection, schedule: Q01DX009 (ip), vehicle: saline with Tween-80
[4] = dose: 50.0 mg/kg/injection, schedule: Q01DX009 (ip), vehicle: saline with Tween-80
[5] = dose: 200.0 mg/kg/injection, schedule: Q01DX009 (ip), vehicle: saline
[6] = dose: 400.0 mg/kg/injection, schedule: Q01DX009 (ip), vehicle: saline with Tween-80
[7] = dose: 100.0 mg/kg/injection, schedule: Q01DX009 (ip), vehicle: water

C=C1C(=O)OC2CC(C)C3(O)CCC(C)(CC(OC(=O)C(C)C)C12)O3 (stereo not drawn)
survivor count (dose: 10.0 mg/kg/injection, schedule: Q01DX009 (ip), vehicle: saline): 6 of 6
survivor count (dose: 20.0 mg/kg/injection, schedule: Q01DX009 (ip), vehicle: saline): 6 of 6
T/C [1]: 129 % of control
survivor count [1]: 3 of 6
survivor count [2]: 1 of 6

Cc1cc2c(C(C)C)c(O)c(O)c(C=O)c2c(O)c1-c1c(C)cc2c(C(C)C)c(O)c(O)c(C=O)c2c1O
T/C (dose: 5.0 mg/kg/injection, schedule: Q01DX009 (ip), vehicle: saline with Tween-80): 129 and 144 % of control
survivor count (dose: 20.0 mg/kg/injection, schedule: Q01DX009 (ip), vehicle: saline with Tween-80): 6 of 6

C(=C\C1CC2CCCN2O1)/c1ccccc1 (stereo not drawn)
T/C [3]: 136 % of control

CC(C(=O)O)c1ccc2c(c1)[nH]c1ccc(Cl)cc12 (stereo not drawn)
survivor count [4]: 6 of 6

CCOC(=O)c1c(C)c2c(n1C)CCc1cn[nH]c1-2
T/C [2]: 130 % of control [4 of 6 alive]

[I][Hg][CH2]C1COC([CH2][Hg][I])CO1 (stereo not drawn)
T/C (dose: 6.25 mg/kg/injection, schedule: Q01DX010 (ip), vehicle: saline): 131 % of control [5 of 6 alive]

FC(F)(F)c1nc2nccnc2[nH]1
survivor count (dose: 100.0 mg/kg/injection, schedule: Q04DX003 (ip), vehicle: Klucel (hydroxypropylcellulose) (HPC)): 6 of 6
survivor count (dose: 400.0 mg/kg/injection, schedule: Q04DX003 (ip), vehicle: Klucel (hydroxypropylcellulose) (HPC)): 3 of 6

C=CCNc1ccc(C)cc1
T/C [4]: 127 % of control
T/C (dose: 100.0 mg/kg/injection, schedule: Q01DX009 (ip), vehicle: Klucel (hydroxypropylcellulose) (HPC)): 136 % of control
T/C [1]: 136 % of control
survivor count (dose: 200.0 mg/kg/injection, schedule: Q01DX009 (ip), vehicle: saline with Tween-80): 0 of 6

Cc1ccc(C(=O)C2CC2)cc1C
T/C [4]: 135 % of control
T/C [3]: 130 % of control

CC(/C=C/c1ccccc1)=N\NC(=O)CN(C)C
survivor count [5]: 5 of 6

O=CC(/C=N\Nc1ccccc1)=N/Nc1ccccc1
survivor count (dose: 40.0 mg/kg/injection, schedule: Q01DX009 (ip), vehicle: saline with Tween-80): 6 of 7

CCCCCCCC(=O)OCC(=O)[C@]1(O)Cc2c(O)c3c(c(O)c2[C@@H](OC2CC(N)C(O)C(C)O2)C1)C(=O)c1c(OC)cccc1C3=O (stereo partly drawn)
T/C (dose: 0.5 mg/kg/injection, schedule: Q01DX009 (ip), vehicle: water): 125 % of control
survivor count (dose: 4.0 mg/kg/injection, schedule: Q01DX009 (ip), vehicle: water): 8 of 8
T/C (dose: 5.0 mg/kg/injection, schedule: Q04DX003 (ip), vehicle: water): 133 % of control [5 of 6 alive]
survivor count (dose: 8.0 mg/kg/injection, schedule: Q01DX009 (ip), vehicle: water): 5 of 8 and 6 of 8
survivor count (dose: 13.33 mg/kg/injection, schedule: Q04DX003 (ip), vehicle: water): 8 of 8
survivor count (dose: 16.0 mg/kg/injection, schedule: Q04DX003 (ip), vehicle: water): 6 of 8
T/C (dose: 20.0 mg/kg/injection, schedule: Q04DX003 (ip), vehicle: water): 126 % of control

c1cc(NC2CCCCC2)ccc1CN1CCOCC1
T/C (dose: 100.0 mg/kg/injection, schedule: Q01DX009 (ip), vehicle: other): 126 % of control
T/C (dose: 400.0 mg/kg/injection, schedule: Q01DX009 (ip), vehicle: other): 145 % of control

CSC(N)=Nc1cccc2c1CCCC2
survivor count (dose: 200.0 mg/kg/injection, schedule: Q04DX003 (ip), vehicle: saline): 6 of 6

N#CC1(c2ccc(Cl)cc2)CCC1
survivor count [6]: 5 of 6

CCC[As](CCC)SC1OC(COC(C)=O)C(OC(C)=O)C(OC(C)=O)C1OC(C)=O (stereo not drawn)
T/C (dose: 100.0 mg/kg/injection, schedule: Q01DX009 (ip), vehicle: saline + alcohol): 125 % of control
survivor count (dose: 200.0 mg/kg/injection, schedule: Q01DX009 (ip), vehicle: saline + alcohol): 2 of 6
survivor count (dose: 400.0 mg/kg/injection, schedule: Q01DX009 (ip), vehicle: saline + alcohol): 0 of 6

Clc1cc(CBr)c(CBr)cc1Cl
survivor count (dose: 25.0 mg/kg/injection, schedule: Q01DX009 (ip), vehicle: saline with Tween-80): 3 of 6
survivor count [4]: 0 of 6

CC1([CH2][Hg][I])CS(=O)(=O)CC(C)([CH2][Hg][I])O1 (stereo not drawn)
survivor count (dose: 20.0 mg/kg/injection, schedule: Q01DX010 (ip), vehicle: carboxymethylcellulose (CMC)): 5 of 6
survivor count (dose: 40.0 mg/kg/injection, schedule: Q01DX010 (ip), vehicle: carboxymethylcellulose (CMC)): 3 of 6
survivor count (dose: 80.0 mg/kg/injection, schedule: Q01DX010 (ip), vehicle: carboxymethylcellulose (CMC)): 0 of 6

Clc1ccc(-c2cc(=[N+]3CCC4(CC3)SSC3(CC[N+](=c5cc(-c6ccc(Cl)cc6)ss5)CC3)S4)ss2)cc1 (stereo not drawn)
T/C [7]: 128 % of control

O=C(O)/C=C/C(=O)Nc1ccc(Cl)c(Cl)c1
T/C [1]: 131 % of control

O=[n+]1c2ccccc2n([O-])c2ccccc21.[Cl][Cu][Cl]
survivor count (dose: 25.0 mg/kg/injection, schedule: Q04DX003 (ip), vehicle: saline with Tween-80): 6 of 6

O=C1NC(=O)C(c2ccccc2)(c2ccc(Cl)cc2Cl)N1 (stereo not drawn)
survivor count [6]: 3 of 6

CCCC(=O)Oc1ccc(/C=N/NC(N)=S)nc1
survivor count (dose: 225.0 mg/kg/injection, schedule: Q01DX009 (ip), vehicle: saline with Tween-80): 6 of 6
survivor count [6]: 6 of 6
survivor count (dose: 600.0 mg/kg/injection, schedule: Q01DX009 (ip), vehicle: saline with Tween-80): 6 of 6

O=C1C=C(Nc2ccc(Br)cc2)C(Nc2ccc(Br)cc2)=CC1=O
survivor count (dose: 37.5 mg/kg/injection, schedule: Q01DX009 (ip), vehicle: saline with Tween-80): 3 of 7
survivor count (dose: 75.0 mg/kg/injection, schedule: Q01DX009 (ip), vehicle: saline with Tween-80): 6 of 7
survivor count (dose: 150.0 mg/kg/injection, schedule: Q01DX009 (ip), vehicle: saline with Tween-80): 7 of 7

O=C1NC(c2ccccc2)(c2ccccc2)C(=O)N1CCBr
survivor count (dose: 12.5 mg/kg/injection, schedule: Q04DX003 (ip), vehicle: saline): 6 of 6
survivor count (dose: 25.0 mg/kg/injection, schedule: Q04DX003 (ip), vehicle: saline): 6 of 6
survivor count (dose: 100.0 mg/kg/injection, schedule: Q04DX003 (ip), vehicle: saline): 6 of 6

CCCCCCCCCCCCCCCCCC(=O)[O][Sn]([CH2]CCC)([CH2]CCC)[O]C(=O)CCCCCCCCCCCCCCCCC
T/C (dose: 6.25 mg/kg/injection, schedule: Q04DX003 (ip), vehicle: other): 129 % of control
survivor count (dose: 25.0 mg/kg/injection, schedule: Q04DX003 (ip), vehicle: other): 2 of 6

C=CCCC(=O)OC(C)(C)C
T/C (dose: 50.0 mg/kg/injection, schedule: Q01DX009 (ip), vehicle: saline): 126 % of control [5 of 6 alive]
T/C [7]: 128 % of control
T/C [5]: 126 % of control
T/C (dose: 200.0 mg/kg/injection, schedule: Q01DX009 (ip), vehicle: water): 134 % of control

CCc1ccc(NC(=O)N(CCCl)N=O)cc1
T/C (dose: 1.25 mg/kg/injection, schedule: Q04DX003 (ip), vehicle: Klucel (hydroxypropylcellulose) (HPC)): 136 % of control
T/C (dose: 2.5 mg/kg/injection, schedule: Q04DX003 (ip), vehicle: Klucel (hydroxypropylcellulose) (HPC)): 140 % of control
T/C (dose: 17.0 mg/kg/injection, schedule: Q01DX009 (ip), vehicle: gum acacia): 140 % of control
survivor count (dose: 25.0 mg/kg/injection, schedule: Q01DX009 (ip), vehicle: gum acacia): 6 of 6
survivor count (dose: 37.0 mg/kg/injection, schedule: Q01DX009 (ip), vehicle: gum acacia): 6 of 6
survivor count (dose: 50.0 mg/kg/injection, schedule: Q01DX009 (ip), vehicle: gum acacia): 5 of 6
survivor count (dose: 100.0 mg/kg/injection, schedule: Q01DX009 (ip), vehicle: gum acacia): 4 of 6

N#CCc1ccc([N+](=O)[O-])cc1
survivor count (dose: 25.0 mg/kg/injection, schedule: Q01DX009 (ip), vehicle: Klucel (hydroxypropylcellulose) (HPC)): 6 of 6
survivor count (dose: 50.0 mg/kg/injection, schedule: Q04DX003 (ip), vehicle: Klucel (hydroxypropylcellulose) (HPC)): 3 of 6
